Source: PubChem BioAssay (NCATS)
Inconclusive results, whose numbers are uncertain, are shown with a selection of clear calls. For some assays here: A potency beside an inconclusive call is a rough fit, not a confirmed value. Active and inactive are the calls of the source. The call rests on the fitted dose curve; in most records, active means well fitted curve in the direction sought with a large enough effect; inconclusive means small, poorly fitted or top-dose-only effect, or another doubt; inactive means no such curve, though single readings can be large; an effect the other way counts as inactive or inconclusive.

How the values were obtained:
[1] = Quantitative High-Throughput drug screen in 47 multiple myeloma cell lines against the NCATS MIPE library collection: JIM3_ECACC cell viability assay (AID 1918963; further: nearly all actives have a fitted effect of over 35% in size; further: potency means the concentration at half of the fitted maximal effect); settings: JIM3 myeloma viability, CellTiter-Glo ATP, 48 h; viability, percent of control: at 45.8 µM (top of the series) unless noted
Procedure, shortened: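 We plated 500 myeloma cells per well, pinned in MIPE 4.0 compounds, and incubated for 48 hours at 37C. ATP was then quantified with CellTiter-Glo, with DMSO and media-only wells defining 100% and 0%.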

[2] = Quantitative High-Throughput drug screen in 47 multiple myeloma cell lines against the NCATS MIPE library collection: JIM1_ECACC cell viability assay (AID 1918964; further: potency means the concentration at half of the fitted maximal effect); settings: JIM1 myeloma viability, CellTiter-Glo ATP luminescence, 48 h; viability (% of DMSO): at 45.8 µM (top of the series)
Procedure, shortened: (§1)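 CellTiter-Glo luminescence (ATP) after 48 h compound exposure, 37C/5% CO2; 500 cells/well; MIPE 4.0 approved/investigational drugs pinned in; DMSO = 100%, media only = 0% viability.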

[3] = Quantitative High-Throughput drug screen in 47 multiple myeloma cell lines against the NCATS MIPE library collection: JJN3_DSMZ cell viability assay (AID 1918966; further: nearly all actives have a fitted effect of over 50% in size; further: potency means the concentration at half of the fitted maximal effect); settings: JJN3 myeloma cells viability, CellTiter-Glo ATP, 48 h; viability, % of DMSO: at 45.8 µM (top of the series)
Procedure, shortened: as §1

[4] = Quantitative High-Throughput drug screen in 47 multiple myeloma cell lines against the NCATS MIPE library collection: H1112_PLB cell viability assay (AID 1918967; further: potency means the concentration at half of the fitted maximal effect; nearly all actives have a fitted effect of over 30% in size); settings: H1112 myeloma cells viability, ATP luminescence, 48 h; viability: at 45.8 µM (top of the series)
Procedure, shortened: as §1

[5] = Quantitative High-Throughput drug screen in 47 multiple myeloma cell lines against the NCATS MIPE library collection: KMS27_JCRB cell viability assay (AID 1918970); settings: KMS27 myeloma cells, CellTiter-Glo ATP viability, 48 h; viability (% of DMSO): at 45.8 µM (top of the series); further: nearly all actives have a fitted effect of over 30% in size; further: potency means the concentration at half of the fitted maximal effect
Procedure, shortened: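 KMS27_JCRB myeloma cells, 500 per well, exposed 48 h at 37 C, 5% CO2 to MIPE 4.0 compounds. Viability from ATP by CellTiter-Glo luminescence, normalized to DMSO (100%) and medium-only (0%) wells.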

[6] = Quantitative High-Throughput drug screen in 47 multiple myeloma cell lines against the NCATS MIPE library collection: KMS12PE_JCRB cell viability assay (AID 1918972); settings: KMS12PE myeloma viability, CellTiter-Glo ATP, 48 h; viability: at 45.8 µM (top of the series); further: potency means the concentration at half of the fitted maximal effect; nearly all actives have a fitted effect of over 30% in size
Procedure, shortened: (§2)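 Viability readout: CellTiter-Glo luminescence following 5 min room-temperature incubation with reagent. Prior exposure: 48 h, 37C, humidified 5% CO2, 500 cells per well.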

[7] = Quantitative High-Throughput drug screen in 47 multiple myeloma cell lines against the NCATS MIPE library collection: KMS20_JCRB cell viability assay (AID 1918973); settings: CellTiter-Glo ATP, 48 h; viability (% of DMSO): at 45.8 µM (top of the series); further: nearly all actives have a fitted effect of over 45% in size; further: potency means the concentration at half of the fitted maximal effect
Procedure, shortened: as §1

[8] = Quantitative High-Throughput drug screen in 47 multiple myeloma cell lines against the NCATS MIPE library collection: KMS21BM_JCRB cell viability assay (AID 1918974); settings: ATP luminescence, 48 h; viability: at 45.8 µM (top of the series) unless noted; further: potency means the concentration at half of the fitted maximal effect
Procedure, shortened: as §1

[9] = Quantitative High-Throughput drug screen in 47 multiple myeloma cell lines against the NCATS MIPE library collection: KMS26_JCRB cell viability assay (AID 1918975); settings: KMS26 myeloma cells viability, CellTiter-Glo ATP, 48 h; viability (% of DMSO): at 45.8 µM (top of the series); further: nearly all actives have a fitted effect of over 45% in size; further: potency means the concentration at half of the fitted maximal effect
Procedure, shortened: (§3)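 Myeloma cells (500 per well) were exposed to MIPE 4.0 compounds by pin transfer and incubated 48 hours at 37C, 5% CO2. Viability was read as ATP by CellTiter-Glo luminescence, normalised to DMSO (100%) and media-only (0%) wells.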

[10] = Quantitative High-Throughput drug screen in 47 multiple myeloma cell lines against the NCATS MIPE library collection: MOLP8_DSMZ cell viability assay (AID 1918977); settings: MOLP8 myeloma viability, CellTiter-Glo ATP luminescence, 48 h; viability (% of control): at 45.8 µM (top of the series); further: nearly all actives have a fitted effect of over 45% in size; further: potency means the concentration at half of the fitted maximal effect
Procedure, shortened: (§4)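 Cells were exposed to library compounds for 48 hours, after which ATP was measured by CellTiter-Glo. Signal was taken as median relative luminescence units.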

[11] = Quantitative High-Throughput drug screen in 47 multiple myeloma cell lines against the NCATS MIPE library collection: OCIMY1_PLB cell viability assay (AID 1918979); further: nearly all actives have a fitted effect of over 35% in size; further: potency means the concentration at half of the fitted maximal effect
Procedure, shortened: as §4

[12] = Quantitative High-Throughput drug screen in 47 multiple myeloma cell lines against the NCATS MIPE library collection: MM1S_ATCC cell viability assay (AID 1918980); further: nearly all actives have a fitted effect of over 45% in size; further: potency means the concentration at half of the fitted maximal effect
Procedure, shortened: as §4

[13] = Quantitative High-Throughput drug screen in 47 multiple myeloma cell lines against the NCATS MIPE library collection: MM1R_ATCC cell viability assay (AID 1918981); further: nearly all actives have a fitted effect of over 35% in size; further: potency means the concentration at half of the fitted maximal effect
Procedure, shortened: as §4

[14] = Quantitative High-Throughput drug screen in 47 multiple myeloma cell lines against the NCATS MIPE library collection: KMS28PE_JCRB cell viability assay (AID 1918983); further: nearly all actives have a fitted effect of over 35% in size; further: potency means the concentration at half of the fitted maximal effect
Procedure, shortened: as §4

[15] = Quantitative High-Throughput drug screen in 47 multiple myeloma cell lines against the NCATS MIPE library collection: Karpas25_ECACC cell viability assay (AID 1918968); settings: Karpas25 myeloma viability, CellTiter-Glo ATP, 48 h; viability (% of control): at 45.8 µM (top of the series)
Procedure, shortened: as §1

[16] = Quantitative High-Throughput drug screen in 47 multiple myeloma cell lines against the NCATS MIPE library collection: KMS12BM_JCRB cell viability assay (AID 1918971)
Procedure, shortened: as §3

[17] = Quantitative High-Throughput drug screen in 47 multiple myeloma cell lines against the NCATS MIPE library collection: MMM1_PLB cell viability assay (AID 1918976)
Procedure, shortened: as §4

[18] = Quantitative High-Throughput drug screen in 47 multiple myeloma cell lines against the NCATS MIPE library collection: LP1_DSMZ cell viability assay (AID 1918982)
Procedure, shortened: as §4

[19] = Quantitative High-Throughput drug screen in 47 multiple myeloma cell lines against the NCATS MIPE library collection: INA6_PLB cell viability assay (AID 1918965; further: nearly all actives have a fitted effect of over 55% in size); settings: INA6 myeloma viability, CellTiter-Glo ATP luminescence, 48 h; viability (% of control): at 45.8 µM (top of the series)
Procedure, shortened: as §2

NC12CC3CC(CC(C3)C1)C2
inconclusive: Potency [2] 23.5 µM [cytotoxic, single point] | Potency [4] 10.5 µM [cytotoxic, full curve] | Potency [5] 37.2 µM [cytotoxic, single point] | Potency [6] 33.2 µM [cytotoxic, single point] | Potency [7] 1.66 µM [cytotoxic, full curve, poor fit] | Potency [8] 0.0037 µM [cytotoxic, full curve, poor fit] | Potency [9] 0.0019 µM [cytotoxic, full curve, poor fit] | Potency [10] 0.0118 µM [rising, full curve, poor fit] | Potency [11] 8.33 µM [rising, single point] | Potency [13] 11.8 µM [rising, partial curve, poor fit]
active: Potency [12] 1.18 µM
inactive: Potency [1] | Potency [3] | Potency [14]

COC1CCC(N(C(=O)C2CCC(C)CC2)c2cc(C3=CCCCC3)sc2C(=O)O)CC1 (stereo unspecified)
inactive: Potency [2] | Potency [5] | Potency [8] | Potency [9] | Potency [12]
inconclusive: Potency [1] 23.5 µM [cytotoxic, single point] | Potency [3] 0.148 µM [cytotoxic, full curve, poor fit] | Potency [4] 23.5 µM [cytotoxic, partial curve, poor fit] | Potency [15] 29.6 µM [cytotoxic, single point] | Potency [16] 20.9 µM [cytotoxic, partial curve, poor fit] | Potency [17] 20.9 µM [cytotoxic, single point] | Potency [10] 0.0118 µM [cytotoxic, full curve, poor fit] | Potency [13] 20.9 µM [cytotoxic, single point] | Potency [14] 9.35 µM [cytotoxic, partial curve, poor fit]

O=C(Nc1ccccc1Br)N[C@@H]1CCN(c2ccc(C(F)(F)F)cn2)C1
active: Potency [1] 18.7 µM
inconclusive: Potency [2] 0.0148 µM [cytotoxic, full curve, poor fit] | viability, % of DMSO [3] 95.6% [cytotoxic] | Potency [4] 23.5 µM [cytotoxic, single point] | Potency [5] 0.743 µM [cytotoxic, full curve, poor fit] | Potency [16] 5.9 µM [cytotoxic, partial curve, poor fit] | Potency [7] 0.059 µM [cytotoxic, full curve, poor fit] | Potency [8] 10.5 µM [rising, full curve, poor fit] | Potency [9] 0.662 µM [cytotoxic, full curve, poor fit] | Potency [12] 33.2 µM [cytotoxic, single point] | Potency [13] 20.9 µM [cytotoxic, partial curve, poor fit] | Potency [18] 23.5 µM [cytotoxic, partial curve] | Potency [14] 37.2 µM [cytotoxic, partial curve, poor fit]
inactive: Potency [10]

CCC(C)N(C)C(=O)c1cc2ccccc2c(-c2ccccc2Cl)n1 (stereo unspecified)
inactive: Potency [19] | Potency [7] | Potency [10] | Potency [11] | Potency [13] | Potency [14]
inconclusive: Potency [1] 14.8 µM [cytotoxic, partial curve, poor fit] | Potency [2] 33.2 µM [cytotoxic, single point] | Potency [15] 20.9 µM [cytotoxic, partial curve, poor fit] | Potency [16] 0.526 µM [cytotoxic, full curve, poor fit] | Potency [6] 26.4 µM [cytotoxic, single point] | Potency [8] 0.148 µM [cytotoxic, full curve, poor fit] | Potency [9] 5.26 µM [cytotoxic, partial curve, poor fit] | Potency [17] 26.4 µM [cytotoxic, single point]
